From patent US5298488A (Fuji Photo Film Co., Ltd., priority 1990, dated 1994)

What was measured:
[1] = general procedure: Boc solid-phase peptide synthesis; DCC; DCC/HOBt (solution phase); conditions: late stage modification step, hydrochloride
[2] = solution-phase peptide synthesis; DCC; DCC/HOBt (solution phase); conditions: coupling step
[3] = Boc solid-phase peptide synthesis; DCC; DCC/HOBt (solution phase); conditions: whole synthesis

## Arg-Gly-Asp-Ser-Gly-NH2 (RGDS; conjugated to itaconyl CM-chitin)
[1]
  step yield: 86%

## BocGlyAsp(Obzl)Ser((Bzl)GlyNH2
[2]
  step yield: 84%

## H-(Gly-Arg-Gly-Asp-Ser-Pro)-OH (RGDS; conjugated to trimellityl CM-chitin)
[3]
  isolated yield: 25%
